From paper PMC5656322, “BAK1 is involved in AtRALF1-induced inhibition of root cell expansion” (PLoS Genetics, 2017) come the findings set out here.

Results are given in words; binding and its absence hold for the method and conditions named. Binding can be weak; no strength is given. Where a sequence is shown, tags or fusion partners need not be part of it.

The assay has as its target T1, AtRALF1 mature peptide fused to the GAL4 DNA-binding domain (AtRALF1-pGBKT7) (Arabidopsis thaliana) (UniProt Q9SRY3).
T1 sequence: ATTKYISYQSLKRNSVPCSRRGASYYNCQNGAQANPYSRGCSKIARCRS
Description: two-hybrid; RALF peptide fused to the GAL4 DNA-binding domain (pGBKT7) as bait, extracellular domains or truncations fused to the GAL4 activation domain (pGADT7); yeast AH109; growth on synthetic complete medium lacking leucine, tryptophan and histidine.
Take “BAK1-ECD truncated protein 3: LRR3 + LRR4 + LRR5 + Prorich (Arabidopsis thaliana) (domain or fragment)”: the binding entry is listed as “no binding”. Turning to “BAK1-ECD truncated protein 2: LRR2 + LRR3 + LRR4 + LRR5 + Prorich (Arabidopsis thaliana) (domain or fragment)”, the binding entry is “no binding”.

As for “BAK1-ECD truncated protein 7: Leu zippers + LRR1 + LRR2 + LRR3 + LRR4 + LRR5 (Arabidopsis thaliana) (domain or fragment)”, the binding entry was “no binding”. On to “BAK1-ECD truncated protein 9: Leu zippers + LRR1 + LRR2 + LRR3 (Arabidopsis thaliana) (domain or fragment)”, for which the binding result is listed as “binds”. As to “BAK1-ECD truncated protein 1: LRR1 + LRR2 + LRR3 + LRR4 + LRR5 + Prorich (Arabidopsis thaliana) (domain or fragment)”, the binding entry is recorded as “no binding”. Next, “BAK1-ECD truncated protein 10: Leu zippers + LRR1 + LRR2 (Arabidopsis thaliana) (domain or fragment)”: “binds”. In the case of “BAK1-ECD truncated protein 6: Pro-rich (Arabidopsis thaliana) (domain or fragment)”, the binding entry is “no binding”.

Consider “BAK1-ECD truncated protein 5: LRR5 + Prorich (Arabidopsis thaliana) (domain or fragment)”, for which the binding result was “no binding”.

For the substance “BAK1-ECD truncated protein 11: Leu zippers + LRR1 (Arabidopsis thaliana) (domain or fragment)”, the binding entry was “no binding”. As to “BAK1-ECD truncated protein 8: Leu zippers + LRR1 + LRR2 + LRR3 + LRR4 (Arabidopsis thaliana) (domain or fragment)”, the binding result is “no binding”. As to “BAK1-ECD truncated protein 4: LRR4 + LRR5 + Prorich (Arabidopsis thaliana) (domain or fragment)”, the binding entry is “no binding”.

Turning to “Extracellular domain of BRI1 fused to the GAL4 activation domain (BRI1-ECD, pGADT7) (Arabidopsis thaliana) (domain or fragment)”, the binding entry is “no binding”. In the case of “BAK1-ECD truncated protein 12: Leu zippers (Arabidopsis thaliana) (domain or fragment)”, the binding result was “no binding”.
